# Assay results: PubChem BioAssay AID1347076 (National Center for Advancing Translational Sciences (NCATS), 2019)
# Out of some 400,000 compounds screened, about 13,000 (3.2%) were called active. This list was built around the results that the source calls inconclusive (neither active nor inactive); the mix of calls is not that of the screen. Calls follow the shape of the dose curve; as a rule, active = well fitted cell-killing curve with a large enough effect; inconclusive = small, poorly fitted or top-dose-only effect, or effect the other way; inactive = flat fitted curve, though single readings scatter. Where the call is inconclusive, the potency comes from a doubtful curve fit.
# Test: qHTS assay for MDR1-selective chemotherapeutics: Primary screen using the drug-selected MDR subline cells KB-V1; also: nearly all actives have a fitted effect of over 60% in size
# Settings: KB-V1 MDR cells viability, CellTiter-Glo, 72 h; activity change, negative = cytotoxicity: at 46.1 µM (top of the series)
# In short: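 Potencies derive from concentration-effect curves fitted to normalized luminescence (CellTiter-Glo) of KB-V1 cells treated for 72 h at 37 degrees C in phenol-red-free DMEM containing 10% FBS.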
# % is scaled to controls: 0 for no effect and ±100 for the full control effect; potency is read from the fitted curve at half-maximal effect.
SMILES,Potency,"activity change, negative = cytotoxicity"
COc1cc(/C=C2\SC(N)=NC2=O)ccc1O,"inconclusive: 23.1 µM [cytotoxic, partial curve, poor fit]",–
O=C(CSc1ncn[nH]1)Nc1ccccc1-c1ccccc1,"inconclusive: 29.1 µM [rising, single point]",–
N#C/C(=C\C=C\c1ccccc1[N+](=O)[O-])C(=O)NCc1ccccc1,"inconclusive: 20.6 µM [cytotoxic, single point]",–
Cc1cccc(-n2c(SC(C)C(=O)O)nc3sc4c(c3c2=O)CCCC4)c1 (stereo unspecified),inactive,–
Cc1ccc(C(=O)OCN2C(=O)c3ccccc3C2=O)o1,inactive,–
Cc1ccc(/C=N/NC(=O)c2cc(-c3cccnc3)nc3ccccc23)cc1,active: 2.91 µM,–
CCc1cc2c(=O)n(CCC(C)C)c(=S)[nH]c2s1,"inconclusive: 18.4 µM [cytotoxic, single point]",–
O=C(NCc1ccccc1)C(C1CC1)n1c(CSCCOc2ccccc2)nc2ccccc21 (stereo unspecified),"inconclusive: 18.4 µM [cytotoxic, partial curve, poor fit]",–
COc1cc(/C=C/C(=O)CC(=O)/C=C/c2ccc(O)c(OC)c2)ccc1O,inactive,–
CN(C)S(=O)(=O)c1ccc2c(c1)nc(CCC(=O)NCCc1ccc(Cl)cc1)n2C,"inconclusive: 4.61 µM [rising, full curve]",–
CCOC(=O)c1cc(C#N)c(NCc2ccccc2)nc1C,"inconclusive: 11.6 µM [cytotoxic, partial curve]",–
Cc1ccccc1C1=C/C(=C(\SS/C(C(=O)c2ccc(OCC(=O)O)c(Cl)c2Cl)=C2\C=C(c3ccccc3C)SS2)C(=O)c2ccc(OCC(=O)O)c(Cl)c2Cl)SS1,"inconclusive: 29.1 µM [rising, single point]",–
O=C(Nc1ccc2c(c1)OCCO2)c1cccc(S(=O)(=O)N2CCOCC2)c1,active: 20.6 µM,–
Cc1ccc(NC(=O)c2cc(C(=O)c3cc(Cl)ccc3O)cn(-c3ccc(C)cc3)c2=O)cc1,active: 18.4 µM,–
CC(CNC(=O)c1ccc2c(c1)nc1n2CCCCC1)c1ccccc1 (stereo unspecified),inactive,–
CCN(CC)CC(=O)N1CCCC(N2CCN(c3cccc(C(F)(F)F)c3)CC2)C1 (stereo unspecified),"inconclusive: 5.8 µM [cytotoxic, full curve, poor fit]",–
CC(=O)Nc1ccc(NC(=O)C(C)OC(=O)CN2C(=O)C3CCCCC3C2=O)cc1 (stereo unspecified),"inconclusive: 20.6 µM [rising, single point]",–
C/C(=N\S(=O)(=O)c1ccc(C)cc1)N1CCN(S(=O)(=O)c2ccccc2)C1,"inconclusive: 14.6 µM [cytotoxic, partial curve]",–
Cc1cc(C)n(-c2nc(C)nc(N)n2)n1,inactive,–
C=CCOC(=O)c1[nH]c2c(c1C)C(=O)CC(c1ccco1)C2 (stereo unspecified),"inconclusive: 0.461 µM [cytotoxic, full curve]",–
Cc1ccc(C(=O)COC(=O)c2ccccc2N2C(=O)C3C4CCC(C4)C3C2=O)cc1C (stereo unspecified),"inconclusive: 16.4 µM [cytotoxic, partial curve, poor fit]",–
Cc1ccc(C(=O)N/C(=C/c2ccc(-c3cc(C(F)(F)F)ccc3Cl)o2)C(=O)NCc2cccnc2)cc1,active: 9.2 µM,–
COc1ccc(-c2cc(C(=O)Nc3cc(Br)ccc3O)no2)cc1,"inconclusive: 3.26 µM [rising, partial curve]",–
COc1ccccc1-c1nn2c(=O)cc(CN3CCN(C(=O)Nc4ccc(C)cc4Cl)CC3)nc2s1,"inconclusive: 10.3 µM [cytotoxic, partial curve, poor fit]",–

# Another view of three compounds above.
SMILES	Potency	activity change, negative = cytotoxicity
Cc1ccc(C(=O)OCN2C(=O)c3ccccc3C2=O)o1	inactive	–
COc1cc(/C=C/C(=O)CC(=O)/C=C/c2ccc(O)c(OC)c2)ccc1O	inactive	–
Cc1ccc(C(=O)COC(=O)c2ccccc2N2C(=O)C3C4CCC(C4)C3C2=O)cc1C (stereo unspecified)	inconclusive: 16.4 µM [cytotoxic, partial curve, poor fit]	–

# Further entries follow.

SMILES,Potency,"activity change, negative = cytotoxicity"
C=CCNC(=O)c1ccccc1NS(=O)(=O)c1ccc(SC)cc1,"inconclusive: 18.4 µM [cytotoxic, partial curve]",–
COc1ccccc1N1CCN(C(=O)COc2ccc(C)cc2Br)CC1,"inconclusive: 25.1 µM [cytotoxic, single point]",–
CC(=O)c1ccc(N2CCN(C(=O)c3cn(C)c(=O)c4c3c3ccccc3n4C)CC2)cc1,inactive,–
CCn1c(SCC(=O)N/N=C/c2ccc(C)s2)nc2ccccc21,"inconclusive: 10.3 µM [cytotoxic, partial curve, poor fit]",–
Cc1ccc(-n2c(=O)c3c(c4cc(C)ccc4n3C)n(CC(=O)Nc3ccc(F)cc3)c2=O)cc1,"inconclusive: 0.366 µM [cytotoxic, full curve]",–
Cc1ccc(S(=O)(=O)CC2CSc3nc4ccccc4n32)cc1 (stereo unspecified),active: 0.517 µM,–
CCS(=O)(=O)N1CCc2cc(C(=O)Nc3ccc(Br)cc3F)ccc21,inactive,–
O=C(COC(=O)c1cc([N+](=O)[O-])ccc1N1CCOCC1)Nc1ccc(Cl)cc1,"inconclusive: 20.6 µM [cytotoxic, partial curve]",–
Cc1cc(C)cc(NC(=O)CCc2c(C)nc3nc(CNC(=O)c4cccc(F)c4)nn3c2C)c1,inactive,–
COCCCNc1nc2c(c(=O)n(Cc3ccc(F)cc3)c(=O)n2C)n1C,"inconclusive: 32.6 µM [cytotoxic, single point]",inconclusive: -13.4%
CCNc1ccc(Br)cc(C(=O)/C=C/c2ccc(Cl)cc2)c1=O,active: 18.4 µM,–
C/C(=N\NC(=O)c1ccn(C)n1)c1ccc(NC(=O)C2CCCC2)cc1,–,inconclusive: -62.6%
Cc1csc(SCC(=O)Nc2cccc3nsnc23)n1,"inconclusive: 29.1 µM [cytotoxic, single point]",–
CCCCC(=O)Nc1nnc(S(=O)(=O)N(C)Cc2ccc(Cl)cc2)s1,inactive,–
COc1ccc(N(Cc2cccs2)C(=O)c2ccco2)cc1,"inconclusive: 13 µM [cytotoxic, partial curve]",–
CSc1ccccc1NC(=O)CN(c1cc(C)cc(C)c1)S(C)(=O)=O,inactive,–
OCC1(Cc2ccccc2)CCN(C2CCN(c3ccccc3F)CC2)CC1,"inconclusive: 23.1 µM [cytotoxic, single point]",–
COC(=O)c1[nH]c2cc(OC)ccc2c1NC(=O)CN1CCN(c2cccc(C)c2)C(C)C1 (stereo unspecified),active: 20.6 µM,–
CC1CCN(C(=O)CSc2nnc(-c3cc4ccccc4cc3O)n2Cc2ccco2)CC1,active: 3.66 µM,–
Cn1nc(C(=O)Nc2ccc(S(=O)(=O)N3CCCCC3)cc2)c2ccccc2c1=O,"inconclusive: 11.6 µM [cytotoxic, partial curve]",–
C[C@H](CO)N1C[C@H](C)[C@@H](CN(C)C(=O)C2CCOCC2)Oc2ncc(Br)cc2C1=O,inactive,–
O=S(=O)(Nc1nc2ccccc2nc1Cl)c1ccc2ccccc2c1,"inconclusive: 20.6 µM [cytotoxic, single point]",–
COc1cc(OC)cc(C(=O)NCCc2csc3nc(-c4ccccc4F)nn23)c1,inactive,–
Cn1c(=O)[nH]c(=O)c2c1nc(SCCN1CCOCC1)n2Cc1ccccc1,inactive,–

SMILES,Potency,"activity change, negative = cytotoxicity"
Cc1ccccc1CC(=O)Nc1ccon1,"inconclusive: 32.6 µM [rising, partial curve, poor fit]",–
O=C(Nc1nc2c(s1)CCCC2)c1cc(-c2ccncc2)nc2ccccc12,inactive,–
Cc1ccc(S(=O)(=O)N2CC=C(c3c(C)n(CC(=O)N4CCCC4)c4ccccc34)CC2)cc1C,inactive,–
COc1ccc(C(=O)Oc2ccc3oc(=O)sc3c2)cc1,inactive,–
CC1(C)C(C=C(Cl)Cl)C1C(=O)N1CCN(Cc2ccccc2)CC1 (stereo unspecified),"inconclusive: 8.2 µM [cytotoxic, partial curve]",–
Cc1cccc(Nc2ncc3c(n2)CC(c2ccco2)CC3=O)c1 (stereo unspecified),"inconclusive: 16.4 µM [cytotoxic, partial curve, poor fit]",–
Cc1cnc([N+](=O)[O-])n1CCOC(=O)NC(=O)c1ccc(C(F)(F)F)cc1,inactive,–
CCOC(=O)[C@]12CCCC=C1N(Cc1cccc3ccccc13)C(=O)[C@H](CC(=O)N1CCN(C(=O)c3ccco3)CC1)C2,"inconclusive: 8.2 µM [cytotoxic, partial curve]",–
CCOc1ccc2nc(NCCNC(=O)Nc3cccc(C)c3)c(C#N)cc2c1,"inconclusive: 9.2 µM [cytotoxic, partial curve]",–
CCCc1cc(=O)oc2cc3oc(C)c(C)c3cc12,active: 14.6 µM,–
CCC(CC)c1nn2c(=O)cc(COc3ccc(NC(=O)c4cccc(C)c4)cc3)nc2s1,inactive,–
COc1cc(/C=C/C(=O)c2ccc3c(c2)OCO3)cc(OC)c1OC,active: 20.6 µM,–
Cc1ccc(SCCNC(=O)c2ccccc2C)cc1,"inconclusive: 16.4 µM [cytotoxic, partial curve]",–
O=c1oc2ccccc2cc1-c1nnc(NCc2ccco2)s1,"inconclusive: 20.6 µM [cytotoxic, single point]",–
CNC[C@@H]1OCc2ccccc2-c2ccccc2C(=O)N([C@H](C)CO)C[C@@H]1C,inactive,–
[O-][n+]1onc2c3cc(-c4ccccc4)nnc3ccc21,"inconclusive: 20.6 µM [cytotoxic, single point]",–
CC1c2cc3c(cc2CCN1C(=O)c1ccc(Cl)cc1)OCCCO3 (stereo unspecified),"inconclusive: 25.9 µM [cytotoxic, partial curve, poor fit]",–
N#C/C(=C\c1cccnc1)c1nc2ccccc2[nH]1,active: 23.1 µM,–
O=C1NC(=S)S/C1=C/c1ccc(Oc2cnccn2)cc1,inactive,–
CC(C)(C)c1ccc(C(=O)NCCCN2CCN(CCCNC(=O)c3ccc(C(C)(C)C)cc3)CC2)cc1,active: 18.4 µM,–
COc1ccc(CNc2nc(-c3ccc(Cl)cc3)nn2S(=O)(=O)c2ccc(C)cc2)cc1,"inconclusive: 8.2 µM [cytotoxic, partial curve]",–
COc1ccccc1CNS(=O)(=O)c1cc(Br)cc2c1N(C(=O)C1CC1)CC2,inactive,–
